{"source": "patent US20220280511A1", "about": "“CDK4/6 INHIBITORS FOR THE TREATMENT OF PSORIASIS” (EBERHARD KARLS UNIVERSITAET TUEBINGEN MEDIZINISCHE FAKULTAET, priority 2019, published 2022)", "key": {"[1]": {"test_system": "IκBζ expression", "experiment": "IκBζ expression in cytokine-stimulated primary human keratinocytes (immunoblot, qPCR)", "assay_type": "cell-based", "settings": "1 h IL-36α 100 ng/mL or IL-17A 200 ng/mL + TNFα 10 ng/mL, abemaciclib 16 μM, palbociclib 50 μM, EPZ6438 10 μM"}, "[2]": {"test_system": "STAT3", "experiment": "Immunoblot of STAT3 phosphorylation in primary human keratinocytes", "assay_type": "cell-based"}, "[3]": {"test_system": "IκBζ target gene expression", "experiment": "Rescue of inhibitor effects by overexpression of IκBζ, STAT3C or EZH2 (T345D) in HaCaT cells", "assay_type": "cell-based, human"}, "[4]": {"test_system": "EZH2", "experiment": "Immunoblot of EZH2 phosphorylation in keratinocytes", "assay_type": "cell-based, human", "settings": "IL-36α- or IL-17A/TNFα-treated keratinocytes"}, "[5]": {"test_system": "STAT3", "experiment": "Detection of methylated STAT3 by immunoprecipitation in HEK293T cells", "assay_type": "cell-based, human", "settings": "STAT3- and EZH2-overexpressing HEK293T cells, 1 h treatment; FIG. 7a"}, "[6]": {"test_system": "T cell activation", "settings": "Schaer et al.; cited from earlier work"}, "[7]": {"test_system": "IMQ-induced, psoriasis-like skin inflammation", "assay_type": "in vivo, C57BL/6 mice", "method": "Western blot analysis was performed as described before. The following antibodies were used and purchased from Cell Signaling: anti-IκBζ (9244), anti-phospho-STAT3 at Tyr705 (9145), anti-phospho-STAT3 at Ser727 (9134), anti-STAT3 (12640), anti-p65 (8242), anti-EZH2 (5246), anti-pRB (phospho-RB at Ser807/811; 8516), anti-FoxM1 (5436), anti-H3 (4499), anti-CDK4 (12790), anti-CDK6 (13331), anti-CDK9 (2316), anti-cyclin D1 (2978), anti-cyclin D2 (3741), anti-cyclin D3 (2936), anti-cJUN (9165), anti-H3K27me3 (9733), anti-GAPDH (2118), anti-H3 (9715) and anti-β-actin (3700). Anti-β-Gal (sc377257) and anti-GFP (sc9996) were obtained from Santa Cruz Biotechnology. Anti-pEZH2 at T345 (61242) anti-pEZH2 at T487 (12820) were purchased from Active Motif and anti-pan-methyl-lysine antibody was purchased from Enzo (ADI-KAP-TF121-E). For detection of mouse IκB, a self-made antibody raised against peptides […] (SEQ ID NO:3) and […] (SEQ ID NO:4) was applied.\nGene expression analyses were performed as described. Relative gene expression was analyzed using self-designed primers ordered at Metabion (not shown). Relative mRNA levels were calculated by normalization to the human reference gene RPL37A or the mouse reference gene Actin using the 2-ΔΔCt method.\nExperiments were conducted in accordance with the German law guide-lines of animal care. Ears of female C57BL/6 mice (8-12 weeks old) were topically treated for 6 consecutive days with 5 mg Aldara cream (containing 5% imiquimod, 3M Pharmaceutical) and 0.02 mg of abemaciclib (in 10 μL ethanol), 0.05 mg CPI-169 (in 10 μL ethanol) or vehicle control. At day 7, mice were sacrificed and analysed. For IL-36α-mediated psoriasis induction, ears of male C57BL/6 mice (8-12 weeks old) were treated by intradermal injections using 1 μg murine IL-36α (aa 8-160, R&D) or PBS control for 5 consecutive days. For application of the vehicle control, abemaciclib (0.02 mg) or CPI-169 (0.05 mg), substances were mixed with Miglyol 812 (Carl Roth) in a ratio of 1:4. Inhibitors were topically applicated 6 h before intradermal injections of IL-36α or PBS were applied. Mice were sacrificed and analysed at day 6.\nSample preparation was performed as described. The following anti-mouse antibodies from BioLegend were used: anti-CD45 FITC (103107), anti-CD11b PacificBlue (101223), anti-Ly6G PE (127607), anti-F4/80 APC (123115), anti-CD11c Pacific Blue (117322), anti-MHC-II APC (107613), anti-CD172a PE (144011) and anti-Silec-H PE (129605). Anti-PDCA-1 APC (17-2092-80) and anti-αβTCR PE (HM3628) were purchased from Invitrogen, and anti-γδ-TCR APC (17-5711-82) from Sigma. Data was acquired on a LSRII flow cytometer (Becton Dickson).\nEar sections from mice were fixed in 10% formalin (Carl Roth) and subsequently embedded in paraffin. 5-μm sections were prepared and incubated with the following antibodies from Cell Signaling: pSTAT3 (9145), pRB (8516) and H3K27me3 (9733). For staining of human skin samples, EZH2 antibody (Cell Signaling, 5246) was used. Antigen retrieval was performed in 1 mM EDTA pH 8.0 for pSTAT3, and 10 mM citrate buffer pH 6.0+0.5% Triton X-100 for EZH2, H3K27me3 and pRB. After incubation with peroxidase-coupled secondary antibodies, sections were stained with DAB substrate."}, "[8]": {"test_system": "NFKBIZ (IκBζ) promoter", "experiment": "Luciferase assay of NFKBIZ promoter activity in HaCaT cells", "assay_type": "cell-based, human", "settings": "IL-36α-stimulated HaCaT cells, 24 h; FIG. 1b"}, "[9]": {"test_system": "IL-36-triggered psoriasis-like dermatitis", "experiment": "IL-36α-mediated psoriasis-like dermatitis mouse model, topical treatment of ears", "assay_type": "in vivo, C57BL/6 mice", "method": "Western blot analysis was performed as described before. The following antibodies were used and purchased from Cell Signaling: anti-IκBζ (9244), anti-phospho-STAT3 at […] (9145), anti-phospho-STAT3 at […] (9134), anti-STAT3 (12640), anti-p65 (8242), anti-EZH2 (5246), anti-pRB (phospho-RB at […]/811; 8516), anti-FoxM1 (5436), anti-H3 (4499), anti-CDK4 (12790), anti-CDK6 (13331), anti-CDK9 (2316), anti-cyclin D1 (2978), anti-cyclin D2 (3741), anti-cyclin D3 (2936), anti-cJUN (9165), anti-H3K27me3 (9733), anti-GAPDH (2118), anti-H3 (9715) and anti-β-actin (3700). Anti-β-Gal (sc377257) and anti-GFP (sc9996) were obtained from Santa Cruz Biotechnology. Anti-pEZH2 at […] (61242) anti-pEZH2 at […] (12820) were purchased from Active Motif and anti-pan-methyl-lysine antibody was purchased from Enzo ([…]). For detection of mouse IκB, a self-made antibody raised against peptides […] NO:3) and […] NO:4) was applied. Gene expression analyses were performed as described. Relative gene expression was analyzed using self-designed primers ordered at Metabion (not shown). Relative mRNA levels were calculated by normalization to the human reference gene RPL37A or the mouse reference gene Actin using the 2-ΔΔCt method. Experiments were conducted in accordance with the German law guide-lines of animal care. Ears of female C57BL/6 mice (8-12 weeks old) were topically treated for 6 consecutive days with 5 mg Aldara cream (containing 5% imiquimod, 3M Pharmaceutical) and 0.02 mg of abemaciclib (in 10 μL ethanol), 0.05 mg CPI-169 (in 10 μL ethanol) or vehicle control. At day 7, mice were sacrificed and analysed. For IL-36α-mediated psoriasis induction, ears of male C57BL/6 mice (8-12 weeks old) were treated by intradermal injections using 1 μg murine IL-36α (aa 8-160, R&D) or PBS control for 5 consecutive days. For application of the vehicle control, abemaciclib (0.02 mg) or CPI-169 (0.05 mg), substances were mixed with Miglyol 812 (Carl Roth) in a ratio of 1:4. Inhibitors were topically applicated 6 h before intradermal injections of IL-36α or PBS were applied. Mice were sacrificed and analysed at day 6. […]"}, "[10]": {"test_system": "IκBζ expression", "experiment": "IκBζ expression in synchronized HaCaT cells (double thymidine block)", "assay_type": "cell-based, human", "settings": "1 h IL-36α 100 ng/mL, FIG. 2c"}, "[11]": {"test_system": "NFKBIZ promoter region", "experiment": "Chromatin immunoprecipitation at the NFKBIZ promoter in HaCaT cells", "assay_type": "cell-based, human", "settings": "30 min IL-36α, FIG. 7f"}, "[12]": {"test_system": "TH1 cytokines and tumor-infiltrating T cells", "settings": "experimental cancer model, Deng et al.; cited from earlier work"}, "[13]": {"settings": "flow cytometry of IMQ-treated mouse ears, day 7"}, "[14]": {"settings": "after stimulation with IL-36α, FIG. 6a"}}, "note": "Entries after “also recorded” stand apart in the source; their conditions may differ. At least one compound was matched to its structure with a doubt left."}
{"smiles": "CCN(c1cc(-c2ccc(CN3CCOCC3)cc2)cc(C(=O)NCc2c(C)cc(C)[nH]c2=O)c1C)C1CCOCC1", "note": "[EPZ6438, tazemetostat]", "values": [{"measurement": "IL-36α- or IL-17A/TNFα-mediated induction of IκBζ expression", "setting": "[1]", "result": "inhibited"}, {"measurement": "STAT3 activation (pSTAT3 Y705)", "setting": "[2]; IL-36α- or IL-17A/TNFα-stimulated keratinocytes, EPZ6438 10 μM", "result": "inhibited"}]}
{"smiles": "CCN1CCN(Cc2ccc(Nc3ncc(F)c(-c4cc(F)c5nc(C)n(C(C)C)c5c4)n3)nc2)CC1", "note": "[abemaciclib]", "values": [{"measurement": "IL-36α- or IL-17A/TNFα-mediated induction of IκBζ expression", "setting": "[1]", "result": "completely blocked; also recorded: abolished"}, {"measurement": "abemaciclib-mediated suppression of IκBζ induction and IκBζ target gene expression upon expression of phospho-mimicking EZH2 (T345D)", "setting": "[3]; IL-36α-stimulated HaCaT cells, FIG. 6g", "result": "could override"}, {"measurement": "abemaciclib-mediated suppression of IκBζ target gene expression upon exogenous overexpression of IκBζ", "setting": "[3]; doxycycline-inducible IκBζ, IL-36α- or IL-17A/TNFα-stimulated HaCaT cells", "result": "completely abolished"}, {"measurement": "inducible phosphorylation of EZH2 at threonine 345 (T345)", "setting": "[4]", "result": "completely abrogated"}, {"measurement": "lysine methylation of STAT3", "setting": "[5]", "result": "abrogated"}, {"measurement": "T cell activation and pro-inflammatory, intra-tumoral response", "setting": "[6]", "result": "increased"}, {"measurement": "IκBζ expression in the skin, phosphorylation of EZH2 at T345 and of STAT3 at Y705", "setting": "[7]; IMQ-treated mouse skin, day 7", "result": "completely abrogated"}, {"measurement": "expression of IκBζ target genes (Cxcl2, Cxcl5) and DC- and T-cell-derived cytokines (Il17a, Il23a)", "setting": "[7]; IMQ-treated skin, day 7", "result": "significantly downregulated"}, {"measurement": "psoriasis-typical skin inflammation", "setting": "[7]; delivered into the deeper layers of the skin of an experimental animal", "result": "completely suppressing"}, {"measurement": "pRB expression in the epidermis (CDK4/6 inhibition)", "setting": "[7]; ear skin sections of treated mice, FIG. 10c", "result": "loss"}, {"measurement": "immune cell infiltration (neutrophils, macrophages and T cells)", "setting": "[7]; [13]", "result": "significantly suppressed"}, {"measurement": "number of infiltrating plasmacytoid (pDC) and myeloid dendritic cells (mDC)", "setting": "[7]; [13]", "result": "significantly suppressed"}, {"measurement": "IMQ-induced, psoriasis-like skin inflammation (ear thickening, keratinocyte hyperproliferation, immune cell infiltration)", "setting": "[7]; topical, daily 6 days, abemaciclib 0.02 mg, CPI-169 0.05 mg per ear", "result": "completely suppressed"}, {"measurement": "expression of a luciferase construct harboring the NFKBIZ (IκBζ) promoter", "setting": "[8]", "result": "abrogated"}, {"measurement": "IκBζ target gene expression and key cytokine expression (Il17a, Il23a)", "setting": "[9]; IL-36α-treated skin, FIG. 12g", "result": "effectively blocked"}, {"measurement": "keratinocyte hyperproliferation and immune cell infiltration", "setting": "[9]; intradermal IL-36α 5 days, topical inhibitor, day 6", "result": "effectively blocked"}, {"measurement": "IL-36-mediated expression of IκBζ, phosphorylation of EZH2 at T345 and activation of STAT3 (pSTAT3 Y705)", "setting": "[9]; skin of treated mouse ears, day 6", "result": "suppressed"}, {"measurement": "IL-36α-triggered IκBζ induction in all phases of the cell cycle", "setting": "[10]", "result": "completely suppressed"}, {"measurement": "recruitment of STAT3/EZH2/CDK4/6 multi-protein complex to the NFKBIZ promoter region", "setting": "[11]", "result": "abrogated"}, {"measurement": "phosphorylation of STAT3 at threonine 727 (T727)", "setting": "[2]; [14]", "result": "remained unaffected"}, {"measurement": "phosphorylation of STAT3 at tyrosine 705 (Y705)", "setting": "[2]; [14]", "result": "completely absent"}]}
{"smiles": "CC(=O)c1c(C)c2cnc(Nc3ccc(N4CCNCC4)cn3)nc2n(C2CCCC2)c1=O", "note": "[palbociclib]", "values": [{"measurement": "IL-36α- or IL-17A/TNFα-mediated induction of IκBζ expression", "setting": "[1]", "result": "completely blocked; also recorded: abolished"}, {"measurement": "expression of a luciferase construct harboring the NFKBIZ (IκBζ) promoter", "setting": "[8]", "result": "abrogated"}, {"measurement": "levels of TH1 cytokines and tumor-infiltrating T cells", "setting": "[12]", "result": "increased"}]}
